Results from patent publication US20260232797A1.
No constants are given. Whether binding was seen depends on the method and setting. Some entries that bind do so weakly or less than the wild type.

The chains behind the UniProt entries cited, without tags or fusion partners. Where a name states a change or a piece, a line headed by the entry shows the natural chain unless it says otherwise.
UniProt O76036: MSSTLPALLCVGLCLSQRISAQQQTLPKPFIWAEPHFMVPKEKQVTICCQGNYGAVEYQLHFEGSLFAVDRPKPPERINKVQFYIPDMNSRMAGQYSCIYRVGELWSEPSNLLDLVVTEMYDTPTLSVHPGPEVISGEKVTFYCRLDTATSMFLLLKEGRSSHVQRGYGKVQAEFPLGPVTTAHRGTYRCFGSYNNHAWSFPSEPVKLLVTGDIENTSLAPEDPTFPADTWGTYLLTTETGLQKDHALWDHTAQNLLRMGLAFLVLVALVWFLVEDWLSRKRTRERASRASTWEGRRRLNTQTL

Biological target: Human 6xHis tagged NKp46 recombinant protein (human) (UniProt O76036)
Experiment: SPR (Biacore T100) competition study with recombinant human NKp46

Row | Binder | binding
1 | NKp46-2 (parental human IgG1 chimeric anti-NKp46 antibody) (antibody, V domains shown) VH: EVQLQESGPGLVKPSQSLSLTCTVTGYSITSDYAWNWIRQFPGNKLEWMGYITYSGSTSYNPSLESRISITRDTSTNQFFLQLNSVTTEDTATYYCARGGYYGSSWGVFAYWGQGTLVTVSA VL: DIQMTQSPASLSASVGETVTITCRVSENIYSYLAWYQQKQGKSPQLLVYNAKTLAEGVPSRFSGSGSGTQFSLKINSLQPEDFGSYYCQHHYGTPWTFGGGTKLEIK | binds
2 | NKp46-3 (parental human IgG1 chimeric anti-NKp46 antibody) (antibody, V domains shown) VH: EVQLQQSGPELVKPGASVKISCKTSGYTFTEYTMHWVKQSHGKSLEWIGGISPNIGGTSYNQKFKGKATLTVDKSSSTAYMELRSLTSEDSAVYYCARRGGSFDYWGQGTTLTVSS VL: DIVMTQSPATLSVTPGDRVSLSCRASQSISDYLHWYQQKSHESPRLLIKYASQSISGIPSRFSGSGSGSDFTLSINSVEPEDVGVYYCQNGHSFPLTFGAGTKLELK | binds
